# From the supplement of paper PMC12067093, “Discovery and optimisation of a covalent ligand for TRIM25 and its application to targeted protein ubiquitination” (Chemical Science, 2025)
# Protein sequences, listed by entry. Tags and fused reporters are not part of them. Lines headed by an entry give the natural chain unless they say otherwise; changes in a name come on top.
# UniProt Q9BRX2, whole entry, looked up: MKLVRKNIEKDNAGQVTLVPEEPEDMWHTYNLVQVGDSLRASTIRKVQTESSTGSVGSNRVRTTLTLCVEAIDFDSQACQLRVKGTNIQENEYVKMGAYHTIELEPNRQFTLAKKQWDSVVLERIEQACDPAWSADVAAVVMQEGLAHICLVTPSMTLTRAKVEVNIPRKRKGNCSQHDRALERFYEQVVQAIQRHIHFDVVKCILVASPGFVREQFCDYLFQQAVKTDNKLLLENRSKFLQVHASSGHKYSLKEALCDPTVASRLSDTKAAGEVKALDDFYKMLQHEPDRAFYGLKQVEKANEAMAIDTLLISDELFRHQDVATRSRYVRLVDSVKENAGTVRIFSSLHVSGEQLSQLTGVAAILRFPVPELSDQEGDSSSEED
# UniProt P46020: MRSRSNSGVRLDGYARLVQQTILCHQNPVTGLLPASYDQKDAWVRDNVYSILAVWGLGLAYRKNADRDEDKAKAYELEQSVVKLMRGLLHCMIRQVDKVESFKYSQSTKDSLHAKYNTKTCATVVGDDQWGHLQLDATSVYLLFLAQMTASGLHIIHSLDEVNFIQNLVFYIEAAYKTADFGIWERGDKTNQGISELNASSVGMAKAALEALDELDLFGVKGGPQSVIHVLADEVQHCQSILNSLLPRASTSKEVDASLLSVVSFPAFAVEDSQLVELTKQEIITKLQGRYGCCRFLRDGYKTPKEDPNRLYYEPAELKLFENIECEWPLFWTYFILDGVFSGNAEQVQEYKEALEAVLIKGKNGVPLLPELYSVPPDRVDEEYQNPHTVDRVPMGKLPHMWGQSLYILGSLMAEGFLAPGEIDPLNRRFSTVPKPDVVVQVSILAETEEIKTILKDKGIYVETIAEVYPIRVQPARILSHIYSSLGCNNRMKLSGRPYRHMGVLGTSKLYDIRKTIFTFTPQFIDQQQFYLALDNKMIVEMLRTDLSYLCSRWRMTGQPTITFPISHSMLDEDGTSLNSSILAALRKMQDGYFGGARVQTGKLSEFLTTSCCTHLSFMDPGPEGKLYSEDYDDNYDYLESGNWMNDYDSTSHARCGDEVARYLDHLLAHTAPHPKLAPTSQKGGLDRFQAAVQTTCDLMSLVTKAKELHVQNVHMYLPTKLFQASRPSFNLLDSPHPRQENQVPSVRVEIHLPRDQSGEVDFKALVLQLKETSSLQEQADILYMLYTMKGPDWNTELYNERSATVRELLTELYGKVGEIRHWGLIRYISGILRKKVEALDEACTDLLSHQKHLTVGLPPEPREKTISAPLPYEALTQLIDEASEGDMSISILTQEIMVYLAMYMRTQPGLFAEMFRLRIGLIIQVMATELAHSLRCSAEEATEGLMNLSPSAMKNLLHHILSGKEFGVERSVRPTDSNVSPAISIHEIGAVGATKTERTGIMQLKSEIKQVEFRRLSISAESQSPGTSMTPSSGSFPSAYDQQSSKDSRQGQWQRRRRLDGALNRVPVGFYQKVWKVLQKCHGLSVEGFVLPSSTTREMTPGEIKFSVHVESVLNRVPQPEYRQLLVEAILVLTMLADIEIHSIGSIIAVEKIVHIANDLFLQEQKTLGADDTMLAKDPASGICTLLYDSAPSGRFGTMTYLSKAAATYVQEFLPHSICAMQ
# UniProt O94880: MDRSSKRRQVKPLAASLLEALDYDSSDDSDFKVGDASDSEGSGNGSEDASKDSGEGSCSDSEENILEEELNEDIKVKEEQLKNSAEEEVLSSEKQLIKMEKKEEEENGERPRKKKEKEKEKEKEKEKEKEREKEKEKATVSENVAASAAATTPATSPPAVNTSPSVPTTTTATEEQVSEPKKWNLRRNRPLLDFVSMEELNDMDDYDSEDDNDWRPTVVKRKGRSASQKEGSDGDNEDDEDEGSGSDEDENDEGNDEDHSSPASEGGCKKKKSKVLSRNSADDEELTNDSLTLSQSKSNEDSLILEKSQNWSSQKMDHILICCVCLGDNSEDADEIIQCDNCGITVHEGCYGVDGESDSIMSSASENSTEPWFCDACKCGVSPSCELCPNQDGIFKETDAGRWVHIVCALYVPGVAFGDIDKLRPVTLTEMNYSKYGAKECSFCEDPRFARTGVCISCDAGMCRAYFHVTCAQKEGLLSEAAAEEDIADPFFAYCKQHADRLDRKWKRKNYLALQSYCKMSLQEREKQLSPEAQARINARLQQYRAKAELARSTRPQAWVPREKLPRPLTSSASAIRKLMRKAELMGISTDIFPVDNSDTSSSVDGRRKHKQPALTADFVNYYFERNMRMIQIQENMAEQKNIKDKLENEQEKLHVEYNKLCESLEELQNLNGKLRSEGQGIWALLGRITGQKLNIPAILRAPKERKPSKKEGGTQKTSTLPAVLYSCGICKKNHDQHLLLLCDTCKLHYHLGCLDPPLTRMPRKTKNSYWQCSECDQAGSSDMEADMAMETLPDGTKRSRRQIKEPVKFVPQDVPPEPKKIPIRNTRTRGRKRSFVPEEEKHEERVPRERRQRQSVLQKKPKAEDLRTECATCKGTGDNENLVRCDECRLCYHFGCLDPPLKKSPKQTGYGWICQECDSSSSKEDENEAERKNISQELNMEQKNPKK
# UniProt P37287: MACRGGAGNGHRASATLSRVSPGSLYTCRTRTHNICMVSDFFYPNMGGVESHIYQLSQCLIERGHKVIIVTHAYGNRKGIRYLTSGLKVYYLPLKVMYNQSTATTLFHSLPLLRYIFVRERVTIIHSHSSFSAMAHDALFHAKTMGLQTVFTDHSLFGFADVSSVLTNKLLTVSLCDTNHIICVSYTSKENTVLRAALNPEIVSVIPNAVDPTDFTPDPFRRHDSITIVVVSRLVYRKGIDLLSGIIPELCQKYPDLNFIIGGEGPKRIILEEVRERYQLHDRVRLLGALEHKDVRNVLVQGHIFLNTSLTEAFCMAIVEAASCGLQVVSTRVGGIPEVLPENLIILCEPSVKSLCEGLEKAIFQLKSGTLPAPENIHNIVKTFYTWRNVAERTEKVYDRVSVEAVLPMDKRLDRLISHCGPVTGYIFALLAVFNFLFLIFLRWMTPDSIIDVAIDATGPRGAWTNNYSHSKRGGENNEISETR
# UniProt Q7RTV0, whole entry, looked up: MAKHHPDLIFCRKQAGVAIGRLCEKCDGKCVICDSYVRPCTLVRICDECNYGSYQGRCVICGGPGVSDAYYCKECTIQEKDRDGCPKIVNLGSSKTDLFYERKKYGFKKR
# UniProt P40855: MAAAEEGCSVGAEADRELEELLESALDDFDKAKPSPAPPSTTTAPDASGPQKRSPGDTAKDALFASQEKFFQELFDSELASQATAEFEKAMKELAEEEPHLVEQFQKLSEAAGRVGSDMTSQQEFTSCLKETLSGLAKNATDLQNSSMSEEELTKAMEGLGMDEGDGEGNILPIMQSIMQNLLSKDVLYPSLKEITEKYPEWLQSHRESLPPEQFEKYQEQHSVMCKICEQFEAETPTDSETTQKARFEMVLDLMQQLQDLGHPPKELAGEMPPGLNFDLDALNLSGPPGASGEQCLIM
# UniProt O43189: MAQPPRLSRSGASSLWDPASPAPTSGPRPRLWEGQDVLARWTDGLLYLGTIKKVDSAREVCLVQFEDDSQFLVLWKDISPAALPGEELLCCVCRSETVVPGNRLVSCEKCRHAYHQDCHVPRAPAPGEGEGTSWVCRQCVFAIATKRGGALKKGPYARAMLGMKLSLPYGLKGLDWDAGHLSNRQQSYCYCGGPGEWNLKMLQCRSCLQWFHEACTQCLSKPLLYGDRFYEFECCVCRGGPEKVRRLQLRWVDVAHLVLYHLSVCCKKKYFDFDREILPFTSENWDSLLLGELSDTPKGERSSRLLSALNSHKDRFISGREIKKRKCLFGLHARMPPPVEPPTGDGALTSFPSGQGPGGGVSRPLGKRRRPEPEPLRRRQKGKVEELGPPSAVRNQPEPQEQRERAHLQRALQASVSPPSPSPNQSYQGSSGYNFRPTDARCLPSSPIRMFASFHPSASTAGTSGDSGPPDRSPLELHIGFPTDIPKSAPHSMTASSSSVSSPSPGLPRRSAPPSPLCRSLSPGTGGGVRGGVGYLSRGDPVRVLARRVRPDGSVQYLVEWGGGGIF
# UniProt P42356, whole entry, looked up: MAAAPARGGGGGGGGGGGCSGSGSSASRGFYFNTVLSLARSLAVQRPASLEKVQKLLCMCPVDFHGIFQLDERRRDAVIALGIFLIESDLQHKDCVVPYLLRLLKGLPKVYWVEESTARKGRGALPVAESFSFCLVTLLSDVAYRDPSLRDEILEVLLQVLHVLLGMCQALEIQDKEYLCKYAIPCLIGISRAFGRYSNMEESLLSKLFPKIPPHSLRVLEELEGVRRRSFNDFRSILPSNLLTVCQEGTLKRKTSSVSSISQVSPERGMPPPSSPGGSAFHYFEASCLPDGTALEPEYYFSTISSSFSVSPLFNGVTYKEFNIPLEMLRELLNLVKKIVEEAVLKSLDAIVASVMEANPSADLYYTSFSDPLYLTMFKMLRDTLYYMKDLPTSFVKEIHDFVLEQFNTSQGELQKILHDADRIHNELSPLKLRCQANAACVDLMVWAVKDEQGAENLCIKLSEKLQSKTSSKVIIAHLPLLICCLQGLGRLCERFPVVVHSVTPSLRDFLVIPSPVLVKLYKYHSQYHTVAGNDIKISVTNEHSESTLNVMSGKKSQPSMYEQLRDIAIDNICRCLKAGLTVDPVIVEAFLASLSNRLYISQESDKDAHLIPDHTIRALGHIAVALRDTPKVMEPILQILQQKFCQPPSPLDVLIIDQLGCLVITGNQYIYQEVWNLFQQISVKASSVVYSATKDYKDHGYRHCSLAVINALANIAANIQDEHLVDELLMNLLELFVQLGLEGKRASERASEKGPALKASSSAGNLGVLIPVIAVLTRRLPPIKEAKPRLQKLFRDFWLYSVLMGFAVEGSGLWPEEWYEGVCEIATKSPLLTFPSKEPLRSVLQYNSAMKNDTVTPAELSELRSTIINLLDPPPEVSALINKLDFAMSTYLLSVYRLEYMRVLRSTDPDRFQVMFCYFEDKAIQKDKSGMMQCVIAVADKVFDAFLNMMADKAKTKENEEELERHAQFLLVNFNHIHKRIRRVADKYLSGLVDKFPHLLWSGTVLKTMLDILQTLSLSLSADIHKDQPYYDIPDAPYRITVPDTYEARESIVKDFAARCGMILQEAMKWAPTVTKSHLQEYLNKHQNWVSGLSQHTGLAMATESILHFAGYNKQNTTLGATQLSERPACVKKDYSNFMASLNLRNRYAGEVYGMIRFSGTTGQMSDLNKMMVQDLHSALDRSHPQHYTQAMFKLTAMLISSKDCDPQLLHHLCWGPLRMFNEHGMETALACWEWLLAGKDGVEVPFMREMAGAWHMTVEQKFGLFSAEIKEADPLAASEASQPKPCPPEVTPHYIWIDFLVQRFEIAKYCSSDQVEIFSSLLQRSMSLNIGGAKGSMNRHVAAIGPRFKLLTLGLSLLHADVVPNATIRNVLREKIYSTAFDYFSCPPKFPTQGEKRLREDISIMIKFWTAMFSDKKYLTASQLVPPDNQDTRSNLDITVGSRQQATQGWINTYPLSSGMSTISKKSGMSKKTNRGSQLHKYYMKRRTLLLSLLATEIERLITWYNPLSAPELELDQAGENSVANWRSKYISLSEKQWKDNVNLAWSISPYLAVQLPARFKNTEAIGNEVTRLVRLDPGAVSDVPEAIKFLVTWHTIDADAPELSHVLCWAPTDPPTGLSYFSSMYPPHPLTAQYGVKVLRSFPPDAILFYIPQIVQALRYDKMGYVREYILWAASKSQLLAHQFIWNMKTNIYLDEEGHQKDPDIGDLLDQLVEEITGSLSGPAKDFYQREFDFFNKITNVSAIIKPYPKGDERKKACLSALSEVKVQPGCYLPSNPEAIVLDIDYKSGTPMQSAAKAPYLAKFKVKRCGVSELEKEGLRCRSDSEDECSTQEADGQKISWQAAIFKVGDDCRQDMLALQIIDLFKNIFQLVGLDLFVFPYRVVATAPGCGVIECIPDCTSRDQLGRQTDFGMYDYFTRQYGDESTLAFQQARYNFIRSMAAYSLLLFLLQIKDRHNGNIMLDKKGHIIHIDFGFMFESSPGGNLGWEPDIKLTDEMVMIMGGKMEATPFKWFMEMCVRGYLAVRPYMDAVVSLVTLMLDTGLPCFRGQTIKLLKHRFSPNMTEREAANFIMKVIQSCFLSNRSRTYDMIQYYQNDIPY
# UniProt O14832: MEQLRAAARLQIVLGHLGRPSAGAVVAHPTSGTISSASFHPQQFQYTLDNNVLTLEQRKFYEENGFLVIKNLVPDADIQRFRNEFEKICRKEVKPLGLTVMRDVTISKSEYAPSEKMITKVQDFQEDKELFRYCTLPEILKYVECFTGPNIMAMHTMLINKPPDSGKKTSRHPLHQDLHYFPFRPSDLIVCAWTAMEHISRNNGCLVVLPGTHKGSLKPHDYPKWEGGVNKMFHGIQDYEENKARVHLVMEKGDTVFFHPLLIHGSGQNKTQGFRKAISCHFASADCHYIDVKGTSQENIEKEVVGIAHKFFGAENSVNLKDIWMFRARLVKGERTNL
# The other results are listed elsewhere or left out.
# Compound: CC1Cc2ccccc2N1C(=O)C1CCCN(C1)C(=O)CCl (mixture of isomers) [TRIM25 ligand 11 (diastereomer mixture)]
# Test: probe-labelled cysteine peptide fold change vs DMSO (competition) (log2 fold change); higher = less target engagement (more negative = stronger competition)
# Conditions: 50 µM; THP-1; incubation time: 4 h
# 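Also: competitive chemoproteomic profiling in live THP-1 cells with an iodoacetamide desthiobiotin (IA-DTB) probe, comparing probe-labelled peptide intensities in compound-treated cells against DMSO-treated controls.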
row,Target,probe-labelled cysteine peptide fold change
1,PHIP_Q8WWQ0_28_FLEDGPCQQAAQVLIR (UniProt Q8WWQ0),-0.00825
2,PHF11_Q9UIL8_135_NYHFFCAK (UniProt Q9UIL8),0.156
3,PELO_Q9BRX2_204_CILVASPGFVR (UniProt Q9BRX2),0.146
4,PHKA1_P46020_91_GLLHCMIR (UniProt P46020),0.0455
5,PHIP_Q8WWQ0_245_GHAAEISDMAVNYENTMIAAGSCDK (UniProt Q8WWQ0),0.127
6,PHF14_O94880_518_NYLALQSYCK (UniProt O94880),-0.228
7,PGM3_O95394_200_QASCSGDEYR (UniProt O95394),-0.097
8,PGM3_O95394_168_LSQSVIDGVTVLGGQFHDYGLLTTPQLHYMVYCR (UniProt O95394),-0.079
9,PIGA_P37287_348_VGGIPEVLPENLIILCEPSVK (UniProt P37287),-0.216
10,PHF5A_Q7RTV0_11_HHPDLIFCR (UniProt Q7RTV0),-0.0135
11,PEX19_P40855_229_ICEQFEAETPTDSETTQK (UniProt P40855),-0.321
12,PHF1_O43189_327_CLFGLHAR (UniProt O43189),-0.0784
13,PHF5A_Q7RTV0_40_CVICDSYVRPCTLVR (UniProt Q7RTV0),-0.0427
14,PI4KA_P42356_1774_VQPGCYLPSNPEAIVLDIDYK (UniProt P42356),-0.161
15,PHYH_O14832_280+287_AISCHFASADCHYIDVK (UniProt O14832),-0.0671
